Measured values from the supplement of paper PMC4604168 (melanoma cell lines).
The other results are listed elsewhere or left out. Single values are uncertain, as repeats are few or missing.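 Imaging used 1,536-well plates; nuclei positive for cleaved PARP by antibody were divided by total DNA-stained nuclei to yield the apoptosis fraction. Doses for screening kept most cells viable, and cell lines differ markedly in resting and induced cleaved-PARP levels.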

What was measured:
Assay in all cases: cleaved PARP positive nuclei fraction relative to DMSO control; melanoma cells; higher = more apoptosis
Conditions in all cases: library dose: low library concentration; 72 h
[1] = tested on: CBRC034 (line from a melanoma biopsy)
[2] = tested on: COLO792
[3] = tested on: COLO800
[4] = tested on: COLO829
[5] = tested on: G361
[6] = tested on: IPC-298
[7] = tested on: IST-MEL1
[8] = tested on: LB2518-MEL
[9] = tested on: LOXIMVI
[10] = tested on: MEL-HO
[11] = tested on: MZ2-MEL
[12] = tested on: MeWo
[13] = tested on: RPMI7951
[14] = tested on: RVH-421
[15] = tested on: SkMel28
[16] = tested on: SkMel2
[17] = tested on: SkMel30
[18] = tested on: UACC62

SMILES	cleaved PARP positive nuclei fraction [1]	cleaved PARP positive nuclei fraction [2]	cleaved PARP positive nuclei fraction [3]	cleaved PARP positive nuclei fraction [4]	cleaved PARP positive nuclei fraction [5]	cleaved PARP positive nuclei fraction [6]	cleaved PARP positive nuclei fraction [7]	cleaved PARP positive nuclei fraction [8]	cleaved PARP positive nuclei fraction [9]	cleaved PARP positive nuclei fraction [10]	cleaved PARP positive nuclei fraction [11]	cleaved PARP positive nuclei fraction [12]	cleaved PARP positive nuclei fraction [13]	cleaved PARP positive nuclei fraction [14]	cleaved PARP positive nuclei fraction [15]	cleaved PARP positive nuclei fraction [16]	cleaved PARP positive nuclei fraction [17]	cleaved PARP positive nuclei fraction [18]
Cc1cc(Nc2cc(N3CCN(C)CC3)nc(Sc3ccc(NC(=O)C4CC4)cc3)n2)n[nH]1 [Tozasertib] + OCc1c[nH]c2ccccc12 [Indole-3-carbinol] (first compound 0.006 µM, partner dose 0.8 µM)	101%	42.7%	208%	119%	61.6%	84.6%	113%	62.7%	158%	47.7%	46.7%	68.9%	45%	57.1%	57.9%	37.3%	38.8%	137%
COc1cc([C@@H]2c3cc4c(cc3[C@@H](O[C@@H]3O[C@@H]5CO[C@@H](C)O[C@H]5[C@H](O)[C@H]3O)[C@H]3COC(=O)[C@H]23)OCO4)cc(OC)c1O [etoposide] + C[C@@H](Oc1cc(-c2cnn(C3CCNCC3)c2)cnc1N)c1c(Cl)ccc(F)c1Cl [Crizotinib] (first compound 0.02 µM, partner dose 0.2 µM)	65.9%	131%	87.9%	164%	133%	96.7%	132%	105%	149%	28%	88.9%	146%	62.8%	120%	88.9%	135%	276%	95.4%
O=C(/C=C/c1cccnc1)NCCCCC1CCN(C(=O)c2ccccc2)CC1 + NC1(c2ccc(-c3nc4ccn5c(=O)[nH]nc5c4cc3-c3ccccc3)cc2)CCC1 [MK2206] (first compound 0.01 µM, partner dose 0.4 µM)	658%	351%	202%	212%	3680%	112%	108%	131%	75.5%	275%	571%	93.1%	130%	703%	146%	831%	170%	77.7%
O=C(/C=C/c1cccnc1)NCCCCC1CCN(C(=O)c2ccccc2)CC1 + CCCS(=O)(=O)Nc1ccc(F)c(C(=O)c2c[nH]c3ncc(Cl)cc23)c1F [PLX4720] (first compound 0.01 µM, partner dose 0.08 µM)	871%	470%	247%	180%	3000%	491%	135%	167%	120%	56.9%	844%	79.9%	145%	169%	34.1%	872%	97.8%	67.9%
CCCCCCCCCCCCCCCCCCOP(=O)([O-])OC1CC[N+](C)(C)CC1 [Perifosine] + O=c1[nH]nc(Sc2ncc([N+](=O)[O-])s2)n1-c1ccc2c(c1)OCCO2 [BI78D3] (first compound 0.4 µM, partner dose 0.2 µM)	62.4%	85.1%	82.7%	76.9%	82.7%	42.3%	65.2%	153%	63.4%	209%	77.3%	103%	60.6%	48.7%	170%	27.3%	116%	64.6%
COc1cc([C@@H]2c3cc4c(cc3[C@@H](O[C@@H]3O[C@@H]5CO[C@@H](C)O[C@H]5[C@H](O)[C@H]3O)[C@H]3COC(=O)[C@H]23)OCO4)cc(OC)c1O [etoposide] + CC(C)C[C@H](NC(=O)[C@H](Cc1ccccc1)NC(=O)c1cnccn1)B(O)O [Bortezomib] (first compound 0.02 µM, partner dose 0.001 µM)	97.8%	112%	33.5%	71.2%	2270%	161%	127%	685%	74.8%	122%	139%	129%	117%	59.9%	80.7%	73%	73.2%	96.1%
CCCCCCCCCCCCCCCCCCOP(=O)([O-])OC1CC[N+](C)(C)CC1 [Perifosine] + COCC[n+]1c2c(n(Cc3cnccn3)c1C)C(=O)c1ccccc1C2=O [YM155] (first compound 0.4 µM, partner dose 0.0004 µM)	142%	203%	125%	246%	63.6%	212%	274%	130%	67%	92.3%	135%	106%	164%	54.3%	76.7%	155%	22.7%	35.1%
COc1cc([C@@H]2c3cc4c(cc3[C@@H](O[C@@H]3O[C@@H]5CO[C@@H](C)O[C@H]5[C@H](O)[C@H]3O)[C@H]3COC(=O)[C@H]23)OCO4)cc(OC)c1O [etoposide] + C=C(c1ccc(C(=O)O)cc1)c1cc2c(cc1C)C(C)(C)CCC2(C)C [Bexarotene] (first compound 0.02 µM, partner dose 2 µM)	66.8%	211%	56.9%	115%	132%	91.2%	190%	51.6%	35.4%	83.3%	87.4%	74.2%	54.5%	167%	111%	125%	175%	76.7%

Complete entries as entered above. Order of values: cleaved PARP positive nuclei fraction [1]	cleaved PARP positive nuclei fraction [2]	cleaved PARP positive nuclei fraction [3]	cleaved PARP positive nuclei fraction [4]	cleaved PARP positive nuclei fraction [5]	cleaved PARP positive nuclei fraction [6]	cleaved PARP positive nuclei fraction [7]	cleaved PARP positive nuclei fraction [8]	cleaved PARP positive nuclei fraction [9]	cleaved PARP positive nuclei fraction [10]	cleaved PARP positive nuclei fraction [11]	cleaved PARP positive nuclei fraction [12]	cleaved PARP positive nuclei fraction [13]	cleaved PARP positive nuclei fraction [14]	cleaved PARP positive nuclei fraction [15]	cleaved PARP positive nuclei fraction [16]	cleaved PARP positive nuclei fraction [17]	cleaved PARP positive nuclei fraction [18]
O=C(/C=C/c1cccnc1)NCCCCC1CCN(C(=O)c2ccccc2)CC1 + NC1(c2ccc(-c3nc4ccn5c(=O)[nH]nc5c4cc3-c3ccccc3)cc2)CCC1 [MK2206] (first compound 0.01 µM, partner dose 0.4 µM) is listed with 658%	351%	202%	212%	3680%	112%	108%	131%	75.5%	275%	571%	93.1%	130%	703%	146%	831%	170%	77.7%
COc1cc([C@@H]2c3cc4c(cc3[C@@H](O[C@@H]3O[C@@H]5CO[C@@H](C)O[C@H]5[C@H](O)[C@H]3O)[C@H]3COC(=O)[C@H]23)OCO4)cc(OC)c1O [etoposide] + C[C@@H](Oc1cc(-c2cnn(C3CCNCC3)c2)cnc1N)c1c(Cl)ccc(F)c1Cl [Crizotinib] (first compound 0.02 µM, partner dose 0.2 µM) is listed with 65.9%	131%	87.9%	164%	133%	96.7%	132%	105%	149%	28%	88.9%	146%	62.8%	120%	88.9%	135%	276%	95.4%
